The supplement of paper PMC12823440, “Inhibitors supercharge kinase turnover through native proteolytic circuits” (Nature, 2025)
Structures can show the parent of a compound that is named as a salt. The list shows a part of the results. The calls rarely recur for the same compound in another form.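 In K562 cells expressing nanoluciferase-fused kinases, luminescence was recorded at 4 h intervals between 2 and 18 h, normalized as percent of control with DMSO at 100% and a positive control at 0%. A significant (2 sigma) signal drop marks a time point as decreased. The authors' rule for a hit is not shown and takes in more than the number of time points.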

Sequences of proteins named here, by UniProt entry; tags and fusion partners are left off. A change or cut given only in a name is not applied to a line headed by its entry.
UniProt O15530: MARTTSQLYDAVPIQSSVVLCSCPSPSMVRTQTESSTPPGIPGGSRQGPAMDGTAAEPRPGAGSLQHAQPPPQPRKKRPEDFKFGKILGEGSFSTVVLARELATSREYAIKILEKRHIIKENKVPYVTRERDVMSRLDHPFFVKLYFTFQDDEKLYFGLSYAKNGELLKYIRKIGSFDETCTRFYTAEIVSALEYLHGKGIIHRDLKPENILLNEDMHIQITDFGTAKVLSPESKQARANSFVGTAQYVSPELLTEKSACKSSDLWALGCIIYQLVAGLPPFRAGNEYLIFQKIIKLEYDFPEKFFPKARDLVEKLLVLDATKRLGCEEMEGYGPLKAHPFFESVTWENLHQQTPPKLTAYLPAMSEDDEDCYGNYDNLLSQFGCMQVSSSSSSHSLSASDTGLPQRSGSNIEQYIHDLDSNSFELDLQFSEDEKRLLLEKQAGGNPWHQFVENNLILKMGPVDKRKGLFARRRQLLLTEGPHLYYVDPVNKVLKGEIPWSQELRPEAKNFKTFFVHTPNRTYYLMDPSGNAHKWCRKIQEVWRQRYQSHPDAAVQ
UniProt P42356, whole entry, looked up: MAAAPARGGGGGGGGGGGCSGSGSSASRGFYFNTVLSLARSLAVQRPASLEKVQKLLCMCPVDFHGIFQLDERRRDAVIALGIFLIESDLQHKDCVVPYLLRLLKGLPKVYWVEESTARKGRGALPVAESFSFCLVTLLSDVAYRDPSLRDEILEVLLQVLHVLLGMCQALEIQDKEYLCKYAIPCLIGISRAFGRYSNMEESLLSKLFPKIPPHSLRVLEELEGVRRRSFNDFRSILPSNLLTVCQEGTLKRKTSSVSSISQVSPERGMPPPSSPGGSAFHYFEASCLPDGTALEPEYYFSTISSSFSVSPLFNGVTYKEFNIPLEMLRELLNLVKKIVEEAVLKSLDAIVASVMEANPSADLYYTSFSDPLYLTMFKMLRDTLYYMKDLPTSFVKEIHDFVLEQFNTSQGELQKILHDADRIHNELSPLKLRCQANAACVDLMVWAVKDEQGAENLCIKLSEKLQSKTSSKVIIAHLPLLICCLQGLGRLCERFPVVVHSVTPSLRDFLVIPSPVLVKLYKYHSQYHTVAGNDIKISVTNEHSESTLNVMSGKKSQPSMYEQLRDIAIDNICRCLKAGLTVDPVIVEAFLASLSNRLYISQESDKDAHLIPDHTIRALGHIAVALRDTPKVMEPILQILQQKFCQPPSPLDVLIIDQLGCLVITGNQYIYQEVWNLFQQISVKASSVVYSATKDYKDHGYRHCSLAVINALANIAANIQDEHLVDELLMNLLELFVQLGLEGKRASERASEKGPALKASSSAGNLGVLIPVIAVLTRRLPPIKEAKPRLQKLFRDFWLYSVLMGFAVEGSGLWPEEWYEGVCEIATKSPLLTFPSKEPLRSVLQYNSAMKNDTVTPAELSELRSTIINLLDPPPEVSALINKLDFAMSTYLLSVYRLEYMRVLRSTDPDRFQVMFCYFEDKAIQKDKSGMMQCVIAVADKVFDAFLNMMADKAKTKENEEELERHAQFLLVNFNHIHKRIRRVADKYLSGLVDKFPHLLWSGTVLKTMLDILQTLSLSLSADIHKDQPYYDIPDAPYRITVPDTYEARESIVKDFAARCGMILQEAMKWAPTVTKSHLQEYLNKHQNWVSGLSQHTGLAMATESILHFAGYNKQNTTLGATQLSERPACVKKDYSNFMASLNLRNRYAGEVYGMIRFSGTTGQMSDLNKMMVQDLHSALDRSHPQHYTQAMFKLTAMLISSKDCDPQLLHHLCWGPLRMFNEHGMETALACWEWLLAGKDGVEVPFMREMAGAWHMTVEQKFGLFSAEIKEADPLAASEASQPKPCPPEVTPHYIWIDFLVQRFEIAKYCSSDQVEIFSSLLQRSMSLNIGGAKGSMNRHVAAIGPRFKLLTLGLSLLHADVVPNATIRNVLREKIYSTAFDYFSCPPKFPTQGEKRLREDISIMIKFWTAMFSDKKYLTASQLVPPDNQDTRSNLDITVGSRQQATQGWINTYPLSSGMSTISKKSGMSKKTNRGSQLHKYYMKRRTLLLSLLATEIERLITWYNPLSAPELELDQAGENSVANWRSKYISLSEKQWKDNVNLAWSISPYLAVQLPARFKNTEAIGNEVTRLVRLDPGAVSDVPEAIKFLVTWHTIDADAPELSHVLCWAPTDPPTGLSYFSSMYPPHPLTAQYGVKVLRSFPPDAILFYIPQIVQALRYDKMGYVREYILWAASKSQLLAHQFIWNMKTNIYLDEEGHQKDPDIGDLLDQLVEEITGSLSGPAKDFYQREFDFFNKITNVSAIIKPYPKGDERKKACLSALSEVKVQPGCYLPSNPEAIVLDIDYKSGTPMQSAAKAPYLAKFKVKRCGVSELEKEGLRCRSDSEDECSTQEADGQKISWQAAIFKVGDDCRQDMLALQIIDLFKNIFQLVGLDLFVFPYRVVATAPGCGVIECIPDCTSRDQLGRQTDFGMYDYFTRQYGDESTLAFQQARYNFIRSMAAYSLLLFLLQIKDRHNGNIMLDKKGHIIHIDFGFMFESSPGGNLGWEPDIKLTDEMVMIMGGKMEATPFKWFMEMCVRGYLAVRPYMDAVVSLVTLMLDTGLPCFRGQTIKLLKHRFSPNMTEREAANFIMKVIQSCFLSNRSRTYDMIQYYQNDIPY
UniProt Q9UBF8: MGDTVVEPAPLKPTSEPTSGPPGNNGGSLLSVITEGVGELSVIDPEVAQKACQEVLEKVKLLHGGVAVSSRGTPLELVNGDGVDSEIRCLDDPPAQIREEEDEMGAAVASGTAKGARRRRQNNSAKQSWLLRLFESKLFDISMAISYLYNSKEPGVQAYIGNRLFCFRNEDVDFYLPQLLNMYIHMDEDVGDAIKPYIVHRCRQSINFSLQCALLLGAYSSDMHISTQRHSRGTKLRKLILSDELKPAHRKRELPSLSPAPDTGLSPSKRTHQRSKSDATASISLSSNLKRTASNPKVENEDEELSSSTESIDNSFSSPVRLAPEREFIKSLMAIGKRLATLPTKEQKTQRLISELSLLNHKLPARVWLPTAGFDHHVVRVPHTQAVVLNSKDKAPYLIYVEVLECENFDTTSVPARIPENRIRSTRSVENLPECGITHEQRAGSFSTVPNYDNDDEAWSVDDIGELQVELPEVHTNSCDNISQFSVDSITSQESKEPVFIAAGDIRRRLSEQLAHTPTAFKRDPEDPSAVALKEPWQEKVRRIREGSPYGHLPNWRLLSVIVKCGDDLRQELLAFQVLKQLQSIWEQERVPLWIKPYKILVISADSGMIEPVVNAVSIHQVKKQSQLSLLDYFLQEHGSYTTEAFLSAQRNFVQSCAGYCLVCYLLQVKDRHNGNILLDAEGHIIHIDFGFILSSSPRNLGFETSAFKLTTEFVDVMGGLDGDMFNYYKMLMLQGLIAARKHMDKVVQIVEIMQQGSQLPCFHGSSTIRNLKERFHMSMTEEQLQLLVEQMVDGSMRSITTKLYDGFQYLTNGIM
UniProt P53350, whole entry: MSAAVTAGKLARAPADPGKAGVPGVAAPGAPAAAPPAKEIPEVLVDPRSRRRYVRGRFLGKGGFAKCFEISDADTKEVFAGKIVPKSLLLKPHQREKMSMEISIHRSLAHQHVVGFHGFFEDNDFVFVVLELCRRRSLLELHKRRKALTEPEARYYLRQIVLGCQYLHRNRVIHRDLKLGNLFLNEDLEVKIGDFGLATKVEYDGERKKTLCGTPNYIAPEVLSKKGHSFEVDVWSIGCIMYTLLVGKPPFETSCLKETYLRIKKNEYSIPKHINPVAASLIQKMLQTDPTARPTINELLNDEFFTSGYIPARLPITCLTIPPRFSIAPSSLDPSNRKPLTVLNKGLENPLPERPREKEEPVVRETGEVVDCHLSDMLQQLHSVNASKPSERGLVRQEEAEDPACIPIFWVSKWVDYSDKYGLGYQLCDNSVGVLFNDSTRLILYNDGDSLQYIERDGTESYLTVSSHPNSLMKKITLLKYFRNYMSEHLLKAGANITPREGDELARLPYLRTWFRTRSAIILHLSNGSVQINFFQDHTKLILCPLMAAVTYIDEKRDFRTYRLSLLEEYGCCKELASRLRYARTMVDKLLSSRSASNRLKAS
UniProt Q05397, whole entry, looked up: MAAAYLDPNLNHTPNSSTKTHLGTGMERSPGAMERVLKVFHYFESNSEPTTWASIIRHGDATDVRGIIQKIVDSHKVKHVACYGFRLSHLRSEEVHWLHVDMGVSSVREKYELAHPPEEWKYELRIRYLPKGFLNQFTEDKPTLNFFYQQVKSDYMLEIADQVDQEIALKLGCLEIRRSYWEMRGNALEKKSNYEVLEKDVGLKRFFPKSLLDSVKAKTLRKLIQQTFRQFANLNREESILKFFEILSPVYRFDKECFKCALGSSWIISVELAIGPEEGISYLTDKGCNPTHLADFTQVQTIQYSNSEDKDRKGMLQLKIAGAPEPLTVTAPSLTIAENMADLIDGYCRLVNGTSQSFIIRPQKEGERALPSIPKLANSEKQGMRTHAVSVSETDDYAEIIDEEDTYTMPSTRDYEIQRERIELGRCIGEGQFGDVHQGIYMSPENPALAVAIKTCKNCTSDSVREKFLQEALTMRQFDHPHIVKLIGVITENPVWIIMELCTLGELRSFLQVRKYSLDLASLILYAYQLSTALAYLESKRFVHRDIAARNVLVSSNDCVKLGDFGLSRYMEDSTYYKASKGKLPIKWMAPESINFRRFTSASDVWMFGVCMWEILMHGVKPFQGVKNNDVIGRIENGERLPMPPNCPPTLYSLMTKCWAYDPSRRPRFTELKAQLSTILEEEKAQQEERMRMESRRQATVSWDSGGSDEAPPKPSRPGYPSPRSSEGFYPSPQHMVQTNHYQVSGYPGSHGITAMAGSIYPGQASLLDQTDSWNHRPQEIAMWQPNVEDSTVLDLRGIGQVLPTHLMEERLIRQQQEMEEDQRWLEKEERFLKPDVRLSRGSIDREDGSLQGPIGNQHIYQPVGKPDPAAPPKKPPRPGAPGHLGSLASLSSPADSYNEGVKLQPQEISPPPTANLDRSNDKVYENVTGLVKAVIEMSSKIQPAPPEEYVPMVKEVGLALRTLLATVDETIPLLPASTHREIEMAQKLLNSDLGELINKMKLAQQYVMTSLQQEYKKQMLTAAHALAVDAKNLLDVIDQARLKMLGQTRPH
UniProt Q14289, whole entry, looked up: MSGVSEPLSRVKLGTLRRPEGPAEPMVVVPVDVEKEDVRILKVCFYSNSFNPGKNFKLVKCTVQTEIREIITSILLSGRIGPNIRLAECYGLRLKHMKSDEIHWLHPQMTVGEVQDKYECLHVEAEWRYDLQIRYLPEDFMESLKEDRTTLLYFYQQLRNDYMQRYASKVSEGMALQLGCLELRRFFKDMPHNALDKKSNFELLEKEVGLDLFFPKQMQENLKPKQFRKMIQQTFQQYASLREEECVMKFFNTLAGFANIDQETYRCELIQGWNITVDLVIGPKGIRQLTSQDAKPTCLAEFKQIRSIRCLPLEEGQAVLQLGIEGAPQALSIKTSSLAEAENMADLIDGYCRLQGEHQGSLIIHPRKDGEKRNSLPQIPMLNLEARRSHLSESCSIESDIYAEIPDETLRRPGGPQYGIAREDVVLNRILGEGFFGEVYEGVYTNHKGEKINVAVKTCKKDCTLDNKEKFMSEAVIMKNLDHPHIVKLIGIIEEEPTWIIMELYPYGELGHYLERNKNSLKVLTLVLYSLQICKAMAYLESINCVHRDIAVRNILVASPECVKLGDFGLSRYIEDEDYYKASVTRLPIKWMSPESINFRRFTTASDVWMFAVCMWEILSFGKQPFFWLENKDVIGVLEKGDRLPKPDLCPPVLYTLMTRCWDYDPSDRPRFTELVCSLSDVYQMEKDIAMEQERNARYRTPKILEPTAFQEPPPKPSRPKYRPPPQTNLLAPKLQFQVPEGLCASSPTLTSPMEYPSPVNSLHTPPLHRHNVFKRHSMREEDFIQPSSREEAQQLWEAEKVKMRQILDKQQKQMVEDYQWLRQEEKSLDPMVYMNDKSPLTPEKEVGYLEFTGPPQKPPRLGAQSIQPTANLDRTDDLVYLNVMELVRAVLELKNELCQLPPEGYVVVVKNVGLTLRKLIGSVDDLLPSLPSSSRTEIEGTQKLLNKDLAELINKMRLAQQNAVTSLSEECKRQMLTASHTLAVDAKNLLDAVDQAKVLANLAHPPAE

Experiments:
Assay in all cases: kinase-Nluc reporter destabilization hit call (1 = scored as downregulated) (binary); higher = compound decreases kinase abundance
Details in all cases: K562; 2-18 h
[1] = biological target: PDPK1 (UniProt O15530)
[2] = biological target: PIK4CA (UniProt P42356)
[3] = biological target: PIK4CB (UniProt Q9UBF8)
[4] = biological target: PLK1 (UniProt P53350)
[5] = biological target: PRKAA1 (UniProt Q13131)
[6] = biological target: PRKCA (UniProt P17252)
[7] = biological target: PTK2 (UniProt Q05397)
[8] = biological target: PTK2B (UniProt Q14289)
[9] = biological target: RAF1 (UniProt P04049)
[10] = biological target: RAF1_S257L (clone: RAF1_mut) (UniProt P04049)

Measured: kinase-Nluc reporter destabilization hit call

CC(c1ccc(-c2cnc3c(-c4ccc(S(N)(=O)=O)c5ccccc45)cnn3c2)cc1)N1CCCC1 (stereo not given) (2.5 µM)
inactive: [1] 0 | [2] 0 | [3] 0 | [4] 0 | [5] 0 | [6] 0 | [7] 0 | [8] 0 | [9] 0 | [10] 0

C[C@@]1(O)CCC[C@H]1n1c(=O)c(C(F)F)cc2cnc(NC3CCN(S(C)(=O)=O)CC3)nc21 (2.5 µM)
inactive: [1] 0 | [2] 0 | [3] 0 | [4] 0 | [5] 0 | [6] 0 | [7] 0 | [8] 0 | [9] 0 | [10] 0

CCN1CCN(Cc2ccc(Nc3ncc(F)c(-c4cc(F)c5nc(CO)n(C(C)C)c5c4)n3)nc2)CC1 [Abemaciclib metabolite M20] (2 µM)
inactive: [1] 0 | [2] 0 | [3] 0 | [4] 0 | [5] 0 | [6] 0 | [7] 0 | [8] 0 | [9] 0 | [10] 0

CC(C)CC1(O)CCN(C(=O)c2ccc(NS(=O)(=O)c3cccc4nccnc34)cc2)CC1 (10 µM)
inactive: [1] 0 | [2] 0 | [3] 0 | [4] 0 | [5] 0 | [6] 0 | [7] 0 | [8] 0 | [9] 0 | [10] 0

Cc1cc2cc(Nc3ccnc(Nc4ccc5[nH]c(C)cc5c4)n3)ccc2[nH]1 (2.5 µM)
inactive: [1] 0 | [2] 0 | [3] 0 | [4] 0 | [5] 0 | [6] 0 | [7] 0 | [8] 0 | [9] 0 | [10] 0

O=C(NCCCNc1nc(Nc2cccc(NC(=O)N3CCCC3)c2)ncc1I)c1cccs1 (2.5 µM)
inactive: [1] 0 | [2] 0 | [3] 0 | [4] 0 | [5] 0 | [6] 0 | [7] 0 | [8] 0 | [9] 0 | [10] 0

NCCN1CCN(C/C=C/C(=O)N2CCC[C@@H](n3nc(-c4ccc(Oc5ccccc5)cc4)c4c(N)ncnc43)C2)CC1 [Ibrutinib-MPEA] (10 µM)
inactive: [1] 0 | [2] 0 | [3] 0 | [4] 0 | [5] 0 | [6] 0 | [7] 0 | [8] 0 | [9] 0 | [10] 0

COC1(C(=O)N2Cc3nc(Cl)nc(N[C@H](C)c4cc(N)cc(C(F)(F)F)c4)c3C2)CCOCC1 (10 µM)
inactive: [1] 0 | [2] 0 | [3] 0 | [4] 0 | [5] 0 | [6] 0 | [7] 0 | [8] 0 | [9] 0 | [10] 0

Cc1csc(-c2nnc(Nc3ccc(Oc4ncccc4-c4ccnc(N)n4)cc3)c3ccccc23)c1 (2.5 µM)
inactive: [1] 0 | [2] 0 | [3] 0 | [4] 0 | [5] 0 | [6] 0 | [7] 0 | [8] 0 | [9] 0 | [10] 0

COc1ccc(-c2ccc3c(N4CCOC[C@@H]4C)nc(N4CCOC[C@@H]4C)nc3n2)cc1CO (2.5 µM)
inactive: [1] 0 | [2] 0 | [3] 0 | [4] 0 | [5] 0 | [6] 0 | [7] 0 | [8] 0 | [9] 0 | [10] 0

COc1ccc(CC(=O)Nc2nc3c(s2)CCc2ccccc2-3)cc1OC (10 µM)
inactive: [1] 0 | [2] 0 | [3] 0 | [4] 0 | [5] 0 | [6] 0 | [7] 0 | [8] 0 | [9] 0 | [10] 0

Cc1cc(-c2cc(OC(=O)c3ccccc3)ccc2Cl)cc2nnc(Nc3ccc(OCCN4CCCC4)cc3)nc12 (0.5 µM)
inactive: [1] 0 | [2] 0 | [3] 0 | [4] 0 | [5] 0 | [6] 0 | [7] 0 | [8] 0 | [9] 0 | [10] 0

Cc1cc(Nc2nc(N[C@@H](C)c3ccc(F)cc3)c(C#N)cc2F)n[nH]1 (10 µM)
inactive: [1] 0 | [2] 0 | [3] 0 | [4] 0 | [5] 0 | [6] 0 | [7] 0 | [8] 0 | [9] 0 | [10] 0

COc1ccc(Cn2cc(C(=O)N=Nc3c(O)[nH]c4c(C)cccc34)nn2)cc1 [MARK4 inhibitor 1] (10 µM)
inactive: [1] 0 | [2] 0 | [3] 0 | [4] 0 | [5] 0 | [6] 0 | [7] 0 | [8] 0 | [9] 0 | [10] 0

CC(C)NC(=O)N1CC[C@H](NC2=Nc3cc(F)ccc3N(CC(F)F)c3ccc(Cl)cc32)C1 (10 µM)
inactive: [1] 0 | [2] 0 | [3] 0 | [4] 0 | [5] 0 | [6] 0 | [7] 0 | [8] 0 | [9] 0 | [10] 0

Cn1c(=O)c(F)c(Nc2ccc(I)cc2F)c2c(=O)n(C[C@@H](O)CO)cnc21 (10 µM)
inactive: [1] 0 | [2] 0 | [3] 0 | [4] 0 | [5] 0 | [6] 0 | [7] 0 | [8] 0 | [9] 0 | [10] 0

Cc1cc(Nc2cc3ncccc3c(N[C@@H]3C[C@H]4CC[C@@H](C3)N4CCC#N)n2)n[nH]1 [Izencitinib] (10 µM)
inactive: [1] 0 | [2] 0 | [3] 0 | [4] 0 | [5] 0 | [6] 0 | [7] 0 | [8] 0 | [9] 0 | [10] 0

O=[N+]([O-])c1cc(C(F)(F)F)cc([N+](=O)[O-])c1NNC(=S)Nc1ccc(F)cc1 (10 µM)
inactive: [1] 0 | [2] 0 | [3] 0 | [4] 0 | [5] 0 | [6] 0 | [7] 0 | [8] 0 | [9] 0 | [10] 0

Some of these compounds in order of SMILES length, low to high.
O=C(NCCCNc1nc(Nc2cccc(NC(=O)N3CCCC3)c2)ncc1I)c1cccs1 (2.5 µM)
inactive: [1] 0 | [2] 0 | [3] 0 | [4] 0 | [5] 0 | [6] 0 | [7] 0 | [8] 0 | [9] 0 | [10] 0

COc1ccc(-c2ccc3c(N4CCOC[C@@H]4C)nc(N4CCOC[C@@H]4C)nc3n2)cc1CO (2.5 µM)
inactive: [1] 0 | [2] 0 | [3] 0 | [4] 0 | [5] 0 | [6] 0 | [7] 0 | [8] 0 | [9] 0 | [10] 0

CC(C)NC(=O)N1CC[C@H](NC2=Nc3cc(F)ccc3N(CC(F)F)c3ccc(Cl)cc32)C1 (10 µM)
inactive: [1] 0 | [2] 0 | [3] 0 | [4] 0 | [5] 0 | [6] 0 | [7] 0 | [8] 0 | [9] 0 | [10] 0

CC(c1ccc(-c2cnc3c(-c4ccc(S(N)(=O)=O)c5ccccc45)cnn3c2)cc1)N1CCCC1 (stereo not given) (2.5 µM)
inactive: [1] 0 | [2] 0 | [3] 0 | [4] 0 | [5] 0 | [6] 0 | [7] 0 | [8] 0 | [9] 0 | [10] 0

CCN1CCN(Cc2ccc(Nc3ncc(F)c(-c4cc(F)c5nc(CO)n(C(C)C)c5c4)n3)nc2)CC1 [Abemaciclib metabolite M20] (2 µM)
inactive: [1] 0 | [2] 0 | [3] 0 | [4] 0 | [5] 0 | [6] 0 | [7] 0 | [8] 0 | [9] 0 | [10] 0

COC1(C(=O)N2Cc3nc(Cl)nc(N[C@H](C)c4cc(N)cc(C(F)(F)F)c4)c3C2)CCOCC1 (10 µM)
inactive: [1] 0 | [2] 0 | [3] 0 | [4] 0 | [5] 0 | [6] 0 | [7] 0 | [8] 0 | [9] 0 | [10] 0

Cc1cc(-c2cc(OC(=O)c3ccccc3)ccc2Cl)cc2nnc(Nc3ccc(OCCN4CCCC4)cc3)nc12 (0.5 µM)
inactive: [1] 0 | [2] 0 | [3] 0 | [4] 0 | [5] 0 | [6] 0 | [7] 0 | [8] 0 | [9] 0 | [10] 0

NCCN1CCN(C/C=C/C(=O)N2CCC[C@@H](n3nc(-c4ccc(Oc5ccccc5)cc4)c4c(N)ncnc43)C2)CC1 [Ibrutinib-MPEA] (10 µM)
inactive: [1] 0 | [2] 0 | [3] 0 | [4] 0 | [5] 0 | [6] 0 | [7] 0 | [8] 0 | [9] 0 | [10] 0

(continued)

Fc1ccc(-c2nc(-c3ccccc3F)[nH]c2-c2ccncc2)cc1 (2.5 µM)
inactive: [1] 0 | [2] 0 | [3] 0 | [4] 0 | [5] 0 | [6] 0 | [7] 0 | [8] 0 | [9] 0 | [10] 0

COc1c(NC(=O)C(=O)c2ccc(OCCN3CCOCC3)c3ccccc23)cc(C(C)(C)C)cc1NS(C)(=O)=O (2.5 µM)
inactive: [1] 0 | [2] 0 | [3] 0 | [4] 0 | [5] 0 | [6] 0 | [7] 0 | [8] 0 | [9] 0 | [10] 0

Cc1ccc(-c2c(C(=O)CCl)n(CCCO)c3ncnc(N)c23)cc1 (10 µM)
inactive: [1] 0 | [2] 0 | [3] 0 | [4] 0 | [5] 0 | [6] 0 | [7] 0 | [8] 0 | [9] 0 | [10] 0

N#CC(c1ccnc(NCCc2cccnc2)n1)c1nc2ccccc2s1 (stereo not given) (10 µM)
inactive: [1] 0 | [2] 0 | [3] 0 | [4] 0 | [5] 0 | [6] 0 | [7] 0 | [8] 0 | [9] 0 | [10] 0

CC(C)=CC(=O)CCC(=O)N1CCN(Cc2cc3nc(-c4cccc5[nH]ncc45)nc(N4CCOCC4)c3s2)CC1 (10 µM)
inactive: [1] 0 | [2] 0 | [3] 0 | [4] 0 | [5] 0 | [6] 0 | [7] 0 | [8] 0 | [9] 0 | [10] 0

CN1CCN(c2ccc(C(=O)Nc3cc(-c4cccc(NS(=O)(=O)c5ccccc5)c4)[nH]n3)cc2)CC1 [BPR1J-097 Hydrochloride] (2.5 µM)
inactive: [1] 0 | [2] 0 | [3] 0 | [4] 0 | [5] 0 | [6] 0 | [7] 0 | [8] 0 | [9] 0 | [10] 0

CNC(=O)c1ccc(-c2cnc3cnc(C(=O)N(C)c4ccc(Cl)cc4)cn23)cc1 (2.5 µM)
inactive: [1] 0 | [2] 0 | [3] 0 | [4] 0 | [5] 0 | [6] 0 | [7] 0 | [8] 0 | [9] 0 | [10] 0

C=C1C(=O)O[C@@H]2C[C@@]3(C)CCC[C@H](C)C3=C[C@H]12 [Alantolactone] (10 µM)
inactive: [1] 0 | [2] 0 | [3] 0 | [4] 0 | [5] 0 | [6] 0 | [7] 0 | [8] 0 | [9] 0 | [10] 0

CN(CCNc1ccc2ncc(-c3ccc(C(N)=O)cc3)n2n1)C(=O)OC(C)(C)C (10 µM)
inactive: [1] 0 | [2] 0 | [3] 0 | [4] 0 | [5] 0 | [6] 0 | [7] 0 | [8] 0 | [9] 0 | [10] 0

CC(C)(C)c1ccc(S(=O)(=O)Nc2ccc(-n3ccnc3)cc2)cc1 (10 µM)
inactive: [1] 0 | [2] 0 | [3] 0 | [4] 0 | [5] 0 | [6] 0 | [7] 0 | [8] 0 | [9] 0 | [10] 0

COc1cc(N2CCC(N3CCN(C)CC3)CC2)ccc1Nc1ncc(Cl)c(Nc2ccccc2P(C)(C)=O)n1 [Brigatinib] (2 µM)
inactive: [1] 0 | [2] 0 | [3] 0 | [4] 0 | [5] 0 | [6] 0 | [7] 0 | [8] 0 | [9] 0 | [10] 0
